Data on one sequence can be found in paper PMC3781837.

By UniProt entry, the sequences of proteins in these tests, tags left out. Where a name states a change or a piece, a line headed by the entry shows the natural chain unless it says otherwise.
UniProt F2RGQ4: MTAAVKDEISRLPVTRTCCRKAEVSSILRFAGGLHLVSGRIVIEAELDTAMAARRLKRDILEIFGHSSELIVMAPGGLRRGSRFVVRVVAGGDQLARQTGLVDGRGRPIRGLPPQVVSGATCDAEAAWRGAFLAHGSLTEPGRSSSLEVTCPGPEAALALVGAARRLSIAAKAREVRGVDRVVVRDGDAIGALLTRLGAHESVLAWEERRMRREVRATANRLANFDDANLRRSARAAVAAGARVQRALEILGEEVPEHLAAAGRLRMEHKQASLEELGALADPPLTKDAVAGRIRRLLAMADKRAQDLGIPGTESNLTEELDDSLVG

Construct, isoform or probe ends are uncertain for at least one entry.

The data set has as its target WhiA (Streptomyces venezuelae) (UniProt F2RGQ4). The data set is described as follows: DNase I footprinting. Conditions: DNase I footprinting per Sure Track kit (Amersham); recombinant protein; protein details: N-terminal His tag; label: 5' end label (radiolabel); probe letters rebuilt from the primers and the genome.

“GGATGCATGCCTGCGCACCCTTGACAGAGGGGTGTTCGGTTGCCGACACATCGGGCCGGGTCCGGCGGATTGTGTTGCTGCGGAGCGGTGACACGCCATAGAGTCGCCAACCGTCGGCATGGTGCCACGCTGACCTATCGATAAATGTTCCTGGTGACATCCAAGGAGGTAAGACGAC (double strand) [sven1406 promoter probe]”: the binding result is on record as “binds”.
